# PubChem BioAssay AID652243 – Drosophila RNAi Screening Center, 2013
# Aim: 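Fly regulators of androgen-dependent reporter output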 (primary screen)
# Cells: Drosophila S2R+ cells
# Reagent: long dsRNA against Drosophila genes
# Time to read-out: 72 h (48 h, then 24 h hormone)
# Conditions: synthetic androgen R1881 at 10 nM for 24 h
# Detection: 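Per-well raw luminescence of the androgen-driven firefly reporter and of the Renilla control, two replicates each, without normalisation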
# Direction: firefly reporter light: higher = more light from androgen-responsive reporter; Renilla control light: higher = more constitutive control signal (cell number, transfection)
# Hit rule: 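Across duplicate plates, a knock-down whose log firefly/Renilla ratio shifted a set fold down or up from the GFP/LacZ control mean was a hit; the downward cut appears as both 1.5 and 3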
# Meaning of the calls: active = hit: reporter lowered or raised; inactive = no hit
# The deposit covers about 24,000 reagents; shown is an unselected part of those that have a named target and a result. Over the whole deposit, 246 (1%) are marked active. 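Plates not normalised; calls are printed but the firefly/Renilla ratio behind them is not deposited; fold cut for lowering reported inconsistently.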 Raw values are not corrected between plates. Not stated in the record: the amount of reagent.
target gene,dsRNA,"firefly reporter light, replicate 1","firefly reporter light, replicate 2","Renilla control light, replicate 1","Renilla control light, replicate 2",activity call
dj (GeneID 40838),DRSC12625,1.51e5,1.31e5,2.85e6,2.55e6,inactive
dj (GeneID 40838),DRSC25525,6.64e5,3.87e5,3.72e5,4.16e5,inactive
m-cup (GeneID 42076),DRSC14430,87427,83817,2.07e6,1.88e6,inactive
CG9498 (GeneID 33885),DRSC03235,1.68e5,1.47e5,1.29e6,1.12e6,inactive
CG13692 (GeneID 33216),DRSC00361,1.22e5,92650,4.43e5,5.47e5,inactive
CG13692 (GeneID 33216),DRSC28585,8.89e5,7.98e5,2.37e6,1.90e6,inactive
anchor (GeneID 39965),DRSC10861,57825,59356,4.45e5,4.62e5,inactive
Npc2d (GeneID 41232),DRSC14551,1.42e5,2.22e5,2.08e6,2.13e6,inactive
Npc2d (GeneID 41232),DRSC28011,1.04e6,7.25e5,1.75e6,1.54e6,inactive
Gp150 (GeneID 37549),DRSC04618,8.84e5,7.88e5,2.92e6,3.15e6,inactive
Gp150 (GeneID 37549),DRSC29033,5.04e5,6.01e5,1.21e6,1.31e6,inactive
Gp150 (GeneID 37549),DRSC37020,,,,,inactive
CG6665 (GeneID 36903),DRSC07006,4.11e5,4.64e5,3.98e5,3.65e5,inactive
CG6688 (GeneID 42716),DRSC16094,2.01e5,1.84e5,2.56e6,2.82e6,inactive
CG6688 (GeneID 42716),DRSC25613,7.76e5,8.69e5,1.31e6,1.27e6,inactive
CG4409 (GeneID 36840),DRSC06869,54331,99037,1.12e6,1.12e6,inactive
CG4409 (GeneID 36840),DRSC28040,3.57e5,3.00e5,1.35e6,1.26e6,inactive
Sgp (GeneID 34188),DRSC02195,6.94e5,6.81e5,1.62e6,1.59e6,inactive
ATPsynB (GeneID 39143),DRSC09659,7.41e5,1.11e6,1.62e6,1.82e6,inactive
CG31206 (GeneID 318627),DRSC13388,4.03e5,2.38e5,34933,1.53e5,inactive
CG5697 (GeneID 42483),DRSC23479,7.55e5,9.62e5,6.76e5,9.13e5,inactive
FANCI (GeneID 35895),DRSC06416,2.13e5,2.18e5,1.24e6,1.06e6,inactive
CG13314 (GeneID 39030),DRSC09985,1.72e5,1.18e5,1.62e6,1.08e6,inactive
Pgant4 (GeneID 261610),DRSC00717,1.53e5,1.09e5,1.01e6,7.64e5,inactive
Pgant4 (GeneID 261610),DRSC29585,2.60e5,4.05e5,8.20e5,8.20e5,inactive
Tsp66E (GeneID 39017),DRSC09683,2.42e5,1.77e5,2.07e6,1.58e6,inactive
Actbeta (GeneID 43826),DRSC17185,8.62e5,5.84e5,8.54e5,5.27e5,inactive
Actbeta (GeneID 43826),DRSC17217,4.77e5,3.77e5,3.61e6,3.38e6,inactive
CG34159 (GeneID 34353),DRSC23222,6.40e5,6.75e5,1.13e6,1.23e6,inactive

Limited to “Renilla control light, replicate 1” (8 entries from above):
dj (GeneID 40838) [DRSC25525] = 3.72e5
m-cup (GeneID 42076) [DRSC14430] = 2.07e6
CG9498 (GeneID 33885) [DRSC03235] = 1.29e6
CG13692 (GeneID 33216) [DRSC00361] = 4.43e5
CG13692 (GeneID 33216) [DRSC28585] = 2.37e6
anchor (GeneID 39965) [DRSC10861] = 4.45e5
Npc2d (GeneID 41232) [DRSC14551] = 2.08e6
Npc2d (GeneID 41232) [DRSC28011] = 1.75e6

The list goes on:
target gene,dsRNA,"firefly reporter light, replicate 1","firefly reporter light, replicate 2","Renilla control light, replicate 1","Renilla control light, replicate 2",activity call
Nepl7 (GeneID 34671),DRSC02495,4.50e5,6.39e5,1.31e6,2.02e6,inactive
Nepl7 (GeneID 34671),DRSC27685,2.64e5,2.09e5,5.20e5,7.83e5,inactive
dati (GeneID 43789),DRSC17128,81402,92066,8.46e5,5.75e5,inactive
dati (GeneID 43789),DRSC17140,1.34e5,2.08e5,4.30e6,2.90e6,inactive
dati (GeneID 43789),DRSC17153,5.04e5,5.72e5,3.06e6,2.25e6,inactive
dati (GeneID 43789),DRSC25407,9.60e5,1.08e6,5.41e5,6.05e5,inactive
CREG (GeneID 42092),DRSC16595,65258,55073,1.30e6,7.52e5,inactive
CG14253 (GeneID 43243),DRSC14748,1.60e5,1.24e5,1.71e6,1.67e6,inactive
Incenp (GeneID 35649),DRSC06116,5.41e5,4.90e5,9.88e5,1.49e6,inactive
Incenp (GeneID 35649),DRSC21950,3.00e5,3.03e5,1.16e6,1.02e6,inactive
Incenp (GeneID 35649),DRSC28036,2.23e5,3.56e5,1.60e6,1.39e6,inactive
CG33062 (GeneID 318840),DRSC22195,3.44e5,3.82e5,1.40e6,1.01e6,inactive
CG33062 (GeneID 318840),DRSC27501,2.49e5,2.22e5,6.25e5,8.13e5,inactive
Ir85a (GeneID 41052),DRSC14382,99436,99668,2.21e6,1.58e6,inactive
Ir85a (GeneID 41052),DRSC29077,4.95e5,3.81e5,1.32e6,1.17e6,inactive
CG34199 (GeneID 5740128),DRSC05867,7.50e5,8.77e5,1.20e6,1.20e6,inactive
CG34199 (GeneID 5740128),DRSC28143,6.20e5,5.62e5,1.39e6,1.14e6,inactive
Nplp1 (GeneID 38003),DRSC04370,1.25e6,5.81e5,1.71e6,1.04e6,inactive
CG30105 (GeneID 246459),DRSC05668,1.58e5,2.05e5,3.29e5,4.32e5,inactive
CG30105 (GeneID 246459),DRSC29034,5.36e5,7.08e5,1.34e6,1.18e6,inactive
Dscam2 (GeneID 38788),DRSC10198,1.23e5,1.24e5,1.51e6,1.82e6,inactive
Dscam2 (GeneID 38788),DRSC11018,1.48e5,82077,1.75e6,1.10e6,inactive
Dscam2 (GeneID 38788),DRSC11019,1.71e5,1.45e5,2.16e6,2.04e6,inactive
Dscam2 (GeneID 38788),DRSC22526,4.02e5,3.19e5,9.71e5,1.06e6,inactive
Dscam2 (GeneID 38788),DRSC25787,2.44e5,3.16e5,6.48e5,4.47e5,inactive
Dscam2 (GeneID 38788),DRSC28220,3.15e5,4.40e5,8.08e5,1.36e6,inactive
Idgf6 (GeneID 36868),DRSC07360,8.56e5,7.99e5,1.52e6,1.41e6,inactive
Idgf6 (GeneID 36868),DRSC24904,1.01e6,6.33e5,7.23e5,4.64e5,inactive
CG33107 (GeneID 326256),DRSC21898,6.92e5,5.12e5,1.67e6,1.47e6,inactive
